{"sequences": {"note": "Amino acid sequences for entries named in this document (tags omitted). A change or cut given only in a name is not applied to a line headed by its entry.", "UniProt P13010": "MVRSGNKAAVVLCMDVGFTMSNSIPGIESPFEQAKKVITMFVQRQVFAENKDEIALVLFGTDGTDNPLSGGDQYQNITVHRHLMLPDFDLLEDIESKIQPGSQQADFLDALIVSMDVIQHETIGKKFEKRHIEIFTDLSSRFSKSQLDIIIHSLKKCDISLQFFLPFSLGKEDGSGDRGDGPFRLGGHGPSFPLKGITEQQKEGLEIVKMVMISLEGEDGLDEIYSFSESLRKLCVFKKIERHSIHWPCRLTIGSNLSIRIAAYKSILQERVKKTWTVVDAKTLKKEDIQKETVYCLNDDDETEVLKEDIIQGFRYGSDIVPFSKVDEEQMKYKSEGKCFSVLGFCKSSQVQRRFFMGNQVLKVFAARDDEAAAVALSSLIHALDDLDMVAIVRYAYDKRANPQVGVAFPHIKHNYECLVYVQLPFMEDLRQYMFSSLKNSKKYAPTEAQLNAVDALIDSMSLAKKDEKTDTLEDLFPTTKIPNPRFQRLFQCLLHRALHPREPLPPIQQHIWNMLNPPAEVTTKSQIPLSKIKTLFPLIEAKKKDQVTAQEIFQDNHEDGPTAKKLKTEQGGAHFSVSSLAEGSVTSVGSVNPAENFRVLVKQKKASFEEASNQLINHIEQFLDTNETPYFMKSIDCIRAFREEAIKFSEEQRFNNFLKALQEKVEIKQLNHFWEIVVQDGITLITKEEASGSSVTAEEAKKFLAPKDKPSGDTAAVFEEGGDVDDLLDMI", "UniProt P49750": "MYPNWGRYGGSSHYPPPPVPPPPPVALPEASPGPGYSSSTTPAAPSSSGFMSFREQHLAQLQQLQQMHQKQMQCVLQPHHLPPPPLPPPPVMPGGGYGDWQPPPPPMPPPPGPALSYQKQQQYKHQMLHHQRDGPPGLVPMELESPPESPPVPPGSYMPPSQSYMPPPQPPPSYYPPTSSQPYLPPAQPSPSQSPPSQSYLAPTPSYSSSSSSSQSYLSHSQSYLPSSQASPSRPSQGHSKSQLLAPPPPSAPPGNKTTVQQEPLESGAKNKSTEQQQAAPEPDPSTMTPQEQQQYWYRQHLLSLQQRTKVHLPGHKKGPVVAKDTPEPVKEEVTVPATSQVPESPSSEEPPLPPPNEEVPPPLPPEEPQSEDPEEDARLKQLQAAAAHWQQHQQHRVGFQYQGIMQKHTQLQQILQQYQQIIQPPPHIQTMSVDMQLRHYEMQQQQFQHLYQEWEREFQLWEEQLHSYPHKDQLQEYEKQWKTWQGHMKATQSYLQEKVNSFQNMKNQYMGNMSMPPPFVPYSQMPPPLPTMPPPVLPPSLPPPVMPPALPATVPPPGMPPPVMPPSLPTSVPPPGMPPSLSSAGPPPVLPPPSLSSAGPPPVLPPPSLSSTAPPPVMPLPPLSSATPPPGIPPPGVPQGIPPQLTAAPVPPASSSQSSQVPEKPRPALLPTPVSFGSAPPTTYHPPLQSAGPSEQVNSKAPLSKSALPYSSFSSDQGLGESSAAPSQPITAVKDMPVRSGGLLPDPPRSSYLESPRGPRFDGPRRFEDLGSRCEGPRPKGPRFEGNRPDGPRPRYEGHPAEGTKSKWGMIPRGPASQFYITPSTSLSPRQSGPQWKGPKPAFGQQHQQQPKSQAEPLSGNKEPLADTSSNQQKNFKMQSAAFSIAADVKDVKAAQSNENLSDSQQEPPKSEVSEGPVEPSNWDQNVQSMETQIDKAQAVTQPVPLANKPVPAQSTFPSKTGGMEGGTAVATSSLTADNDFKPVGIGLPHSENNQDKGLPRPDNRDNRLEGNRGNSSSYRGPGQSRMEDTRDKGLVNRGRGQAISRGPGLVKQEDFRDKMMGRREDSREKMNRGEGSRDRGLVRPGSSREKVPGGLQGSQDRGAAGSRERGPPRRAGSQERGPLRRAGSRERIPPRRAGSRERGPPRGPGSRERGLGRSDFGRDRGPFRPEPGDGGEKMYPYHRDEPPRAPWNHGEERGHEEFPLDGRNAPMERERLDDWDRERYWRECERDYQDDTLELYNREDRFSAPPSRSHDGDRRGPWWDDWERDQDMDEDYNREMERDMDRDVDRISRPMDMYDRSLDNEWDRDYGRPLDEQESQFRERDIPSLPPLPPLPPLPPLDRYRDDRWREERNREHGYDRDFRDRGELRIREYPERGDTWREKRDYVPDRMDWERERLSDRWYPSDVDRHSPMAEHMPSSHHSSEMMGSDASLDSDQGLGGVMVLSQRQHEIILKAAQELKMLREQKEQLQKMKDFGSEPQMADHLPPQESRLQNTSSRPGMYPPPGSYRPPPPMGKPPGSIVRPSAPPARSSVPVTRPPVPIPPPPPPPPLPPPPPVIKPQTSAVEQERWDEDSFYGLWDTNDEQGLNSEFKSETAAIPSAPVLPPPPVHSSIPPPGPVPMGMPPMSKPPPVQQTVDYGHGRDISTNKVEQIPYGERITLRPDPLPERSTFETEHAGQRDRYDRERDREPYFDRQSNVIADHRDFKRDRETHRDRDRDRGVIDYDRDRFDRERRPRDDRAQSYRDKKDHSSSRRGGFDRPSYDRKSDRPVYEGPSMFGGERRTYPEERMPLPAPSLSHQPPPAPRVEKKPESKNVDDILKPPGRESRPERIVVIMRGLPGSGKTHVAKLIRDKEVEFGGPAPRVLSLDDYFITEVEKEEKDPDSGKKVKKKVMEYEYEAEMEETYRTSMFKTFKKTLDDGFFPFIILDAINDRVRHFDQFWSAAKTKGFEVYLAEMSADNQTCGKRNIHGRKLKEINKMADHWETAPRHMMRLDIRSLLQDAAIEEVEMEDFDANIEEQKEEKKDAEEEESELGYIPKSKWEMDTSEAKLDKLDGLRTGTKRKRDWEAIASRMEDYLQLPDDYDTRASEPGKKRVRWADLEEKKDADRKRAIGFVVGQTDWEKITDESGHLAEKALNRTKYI", "UniProt Q96TA2": "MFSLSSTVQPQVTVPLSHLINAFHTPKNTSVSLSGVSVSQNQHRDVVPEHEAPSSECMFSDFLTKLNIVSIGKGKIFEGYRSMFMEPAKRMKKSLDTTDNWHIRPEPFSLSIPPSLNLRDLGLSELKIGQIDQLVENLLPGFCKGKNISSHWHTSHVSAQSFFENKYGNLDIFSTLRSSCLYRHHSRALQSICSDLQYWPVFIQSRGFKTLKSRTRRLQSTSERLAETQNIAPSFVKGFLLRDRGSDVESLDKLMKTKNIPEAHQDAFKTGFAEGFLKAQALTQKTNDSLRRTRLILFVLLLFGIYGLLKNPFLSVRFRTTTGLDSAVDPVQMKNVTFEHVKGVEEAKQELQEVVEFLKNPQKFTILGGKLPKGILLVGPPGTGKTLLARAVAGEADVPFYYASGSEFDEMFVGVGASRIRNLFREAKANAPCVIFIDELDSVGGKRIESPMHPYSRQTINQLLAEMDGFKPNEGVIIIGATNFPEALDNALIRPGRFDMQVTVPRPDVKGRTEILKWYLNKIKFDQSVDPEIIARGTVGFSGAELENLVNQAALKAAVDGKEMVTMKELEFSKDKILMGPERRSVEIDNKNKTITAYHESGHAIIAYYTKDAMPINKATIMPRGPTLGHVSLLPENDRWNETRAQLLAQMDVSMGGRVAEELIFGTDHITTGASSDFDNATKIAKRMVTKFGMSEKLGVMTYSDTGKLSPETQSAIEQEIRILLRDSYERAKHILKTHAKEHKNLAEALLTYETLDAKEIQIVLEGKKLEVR", "UniProt O76080": "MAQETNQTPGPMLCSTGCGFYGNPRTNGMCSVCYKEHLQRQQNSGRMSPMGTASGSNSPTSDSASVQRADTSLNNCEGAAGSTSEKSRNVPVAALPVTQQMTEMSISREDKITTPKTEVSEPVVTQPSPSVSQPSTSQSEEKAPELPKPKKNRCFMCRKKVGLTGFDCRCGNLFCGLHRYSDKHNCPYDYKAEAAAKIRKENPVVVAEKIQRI", "UniProt O95159": "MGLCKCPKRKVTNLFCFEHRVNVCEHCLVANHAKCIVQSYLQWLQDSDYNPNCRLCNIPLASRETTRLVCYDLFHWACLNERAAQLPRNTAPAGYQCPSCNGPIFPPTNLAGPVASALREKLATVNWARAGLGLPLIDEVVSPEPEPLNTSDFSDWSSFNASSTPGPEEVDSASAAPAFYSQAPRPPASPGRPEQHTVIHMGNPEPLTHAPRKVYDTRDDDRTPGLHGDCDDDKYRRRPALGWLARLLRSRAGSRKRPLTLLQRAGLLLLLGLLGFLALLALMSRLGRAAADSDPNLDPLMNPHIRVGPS", "UniProt P67809, whole entry, looked up": "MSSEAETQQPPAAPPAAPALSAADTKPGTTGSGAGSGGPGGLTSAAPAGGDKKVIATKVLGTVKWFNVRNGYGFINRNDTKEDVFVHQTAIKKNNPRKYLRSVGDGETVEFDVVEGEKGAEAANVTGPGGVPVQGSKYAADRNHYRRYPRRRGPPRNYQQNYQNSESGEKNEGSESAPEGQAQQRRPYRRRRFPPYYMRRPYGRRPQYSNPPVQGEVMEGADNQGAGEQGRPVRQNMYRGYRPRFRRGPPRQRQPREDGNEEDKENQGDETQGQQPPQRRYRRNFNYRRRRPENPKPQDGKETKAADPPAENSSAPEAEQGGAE", "UniProt O60293": "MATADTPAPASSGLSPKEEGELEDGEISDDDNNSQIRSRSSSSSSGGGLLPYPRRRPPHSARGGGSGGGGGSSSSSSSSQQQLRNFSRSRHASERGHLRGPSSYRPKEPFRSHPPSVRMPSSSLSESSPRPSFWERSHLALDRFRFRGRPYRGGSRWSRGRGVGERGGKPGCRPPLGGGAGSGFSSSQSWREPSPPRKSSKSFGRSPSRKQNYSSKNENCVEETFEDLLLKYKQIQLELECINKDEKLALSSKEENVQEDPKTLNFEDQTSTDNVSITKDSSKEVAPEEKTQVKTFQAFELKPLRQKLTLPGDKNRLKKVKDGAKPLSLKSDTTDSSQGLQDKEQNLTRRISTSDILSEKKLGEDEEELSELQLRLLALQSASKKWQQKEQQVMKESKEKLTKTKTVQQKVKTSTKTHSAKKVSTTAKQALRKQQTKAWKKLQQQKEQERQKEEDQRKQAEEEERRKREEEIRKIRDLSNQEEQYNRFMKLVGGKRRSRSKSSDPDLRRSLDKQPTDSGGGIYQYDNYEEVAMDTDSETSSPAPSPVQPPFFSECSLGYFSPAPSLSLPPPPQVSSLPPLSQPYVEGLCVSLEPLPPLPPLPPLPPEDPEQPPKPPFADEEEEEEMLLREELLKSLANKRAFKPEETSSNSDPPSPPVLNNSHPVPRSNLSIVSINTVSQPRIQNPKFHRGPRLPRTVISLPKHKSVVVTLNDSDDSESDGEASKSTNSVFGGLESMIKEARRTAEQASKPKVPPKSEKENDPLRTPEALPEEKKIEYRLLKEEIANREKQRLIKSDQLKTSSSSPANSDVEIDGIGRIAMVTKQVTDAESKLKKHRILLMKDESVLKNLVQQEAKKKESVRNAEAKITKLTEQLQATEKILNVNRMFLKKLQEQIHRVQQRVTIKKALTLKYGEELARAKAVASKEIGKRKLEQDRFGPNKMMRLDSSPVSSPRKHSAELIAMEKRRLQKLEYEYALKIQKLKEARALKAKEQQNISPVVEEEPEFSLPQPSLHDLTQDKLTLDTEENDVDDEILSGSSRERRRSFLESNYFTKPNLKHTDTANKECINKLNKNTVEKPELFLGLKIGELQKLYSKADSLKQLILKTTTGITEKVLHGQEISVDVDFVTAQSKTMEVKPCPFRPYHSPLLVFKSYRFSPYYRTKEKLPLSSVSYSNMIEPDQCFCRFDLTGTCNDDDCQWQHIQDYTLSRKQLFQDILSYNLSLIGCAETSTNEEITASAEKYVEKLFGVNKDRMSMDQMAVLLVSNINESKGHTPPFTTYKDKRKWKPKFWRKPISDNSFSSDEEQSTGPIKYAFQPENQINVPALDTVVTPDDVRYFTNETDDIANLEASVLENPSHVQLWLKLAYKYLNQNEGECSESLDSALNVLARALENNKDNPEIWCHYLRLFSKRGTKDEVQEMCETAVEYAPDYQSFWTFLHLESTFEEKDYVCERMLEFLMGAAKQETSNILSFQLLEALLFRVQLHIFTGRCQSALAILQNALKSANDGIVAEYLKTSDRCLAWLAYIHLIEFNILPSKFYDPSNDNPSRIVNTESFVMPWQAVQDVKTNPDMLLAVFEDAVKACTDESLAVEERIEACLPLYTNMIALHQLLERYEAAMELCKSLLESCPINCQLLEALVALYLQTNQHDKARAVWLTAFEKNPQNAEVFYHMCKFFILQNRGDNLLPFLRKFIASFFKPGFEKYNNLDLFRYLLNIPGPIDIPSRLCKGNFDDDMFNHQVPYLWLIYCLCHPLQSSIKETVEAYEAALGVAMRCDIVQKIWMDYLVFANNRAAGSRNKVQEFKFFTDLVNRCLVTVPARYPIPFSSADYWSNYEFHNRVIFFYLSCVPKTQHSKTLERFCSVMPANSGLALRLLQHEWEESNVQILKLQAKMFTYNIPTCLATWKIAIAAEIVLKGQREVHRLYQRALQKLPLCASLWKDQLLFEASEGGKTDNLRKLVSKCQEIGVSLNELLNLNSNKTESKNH"}, "source": "the supplement of paper PMC10849652", "note": "The other results are listed elsewhere or left out."}
{"compound": "CC1=C(C=C(C=C1)NC(=O)C2=CC(=CC=C2)N(C)C)NC(=O)C3=CC=C(C=C3)O", "assay": "log2 fold change, soluble protein after heating vs DMSO (PISA); higher = thermal stabilisation; K562 lysate, 10 uM; active = over 0.2 and 3.5 SD of the protein, either way, in both replicates (recomputed)", "how_it_was_run": "(§1)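 Log-two fold change in thermal stability relative to solvent controls is reported from duplicates. For each sample, crude K562 extract from dounce-homogenised pellets in PBS pH 7.4 with 1 mM MgCl2, at 1 mg/mL protein, was treated with 10 μM compound for 30 min. Aliquots heated for 3 min across 48°C-58°C were pooled, brought to 0.5% NP-40 at 4°C and cleared at 21,000xg for 90 min. The supernatant was quantified by TMTpro 16plex LC-MS/MS with channel sums equalised.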"}
{"target": "XRCC5 (UniProt P13010)", "log2 fold change": "inactive: 0.004"}
{"target": "ZC3H7B (UniProt Q9UGR2)", "log2 fold change": "inactive: 0.076"}
{"target": "YLPM1 (UniProt P49750)", "log2 fold change": "inactive: 0"}
{"target": "ZFAND6 (UniProt Q6FIF0)", "log2 fold change": "inactive: -0.054"}
{"target": "ZGPAT (UniProt Q8N5A5)", "log2 fold change": "inactive: 0.001"}
{"target": "ZC3H13 (UniProt Q5T200)", "log2 fold change": "inactive: -0.01"}
{"target": "YES1 (UniProt P07947)", "log2 fold change": "inactive: -0.005"}
{"target": "YOD1 (UniProt Q5VVQ6)", "log2 fold change": "inactive: 0.006"}
{"target": "YDJC (UniProt A8MPS7)", "log2 fold change": "inactive: 0.022"}
{"target": "ZDHHC18 (UniProt Q9NUE0)", "log2 fold change": "inactive: 0.073"}
{"target": "ZBTB14 (UniProt O43829)", "log2 fold change": "inactive: 0.008"}
{"target": "XRN1 (UniProt Q8IZH2)", "log2 fold change": "inactive: 0.024"}
{"target": "ZEB2 (UniProt O60315)", "log2 fold change": "inactive: 0.022"}
{"target": "XPR1 (UniProt Q9UBH6)", "log2 fold change": "inactive: 0.002"}
{"target": "YJU2 (UniProt Q9BW85)", "log2 fold change": "inactive: 0"}
{"target": "YME1L1 (UniProt Q96TA2)", "log2 fold change": "inactive: 0.054"}
{"target": "YPEL5 (UniProt P62699)", "log2 fold change": "inactive: -0.048"}
{"target": "ZC3H18 (UniProt E7ERS3)", "log2 fold change": "inactive: 0.002"}
{"target": "ZFYVE16 (UniProt Q7Z3T8)", "log2 fold change": "inactive: 0.028"}
{"target": "ZFAND5 (UniProt O76080)", "log2 fold change": "inactive: 0.029"}
{"target": "ZER1 (UniProt Q7Z7L7)", "log2 fold change": "inactive: 0.081"}
{"target": "ZC2HC1A (UniProt Q96GY0)", "log2 fold change": "inactive: -0.003"}
{"target": "YTHDF2 (UniProt Q9Y5A9)", "log2 fold change": "inactive: 0.028"}
{"target": "YARS2 (UniProt Q9Y2Z4)", "log2 fold change": "inactive: -0.02"}
{"target": "XPO7 (UniProt Q9UIA9)", "log2 fold change": "inactive: 0.024"}
{"target": "ZBTB33 (UniProt Q86T24)", "log2 fold change": "inactive: 0.044"}
{"target": "XPO6 (UniProt Q96QU8)", "log2 fold change": "inactive: 0.062"}
{"target": "YRDC (UniProt Q86U90)", "log2 fold change": "inactive: 0.007"}
{"target": "YARS (UniProt P54577)", "log2 fold change": "inactive: 0.024"}
{"target": "ZFPL1 (UniProt O95159)", "log2 fold change": "inactive: 0.014"}
{"target": "ZC3HAV1 (UniProt Q7Z2W4)", "log2 fold change": "inactive: 0.022"}
{"target": "YBX1 (UniProt P67809)", "log2 fold change": "inactive: 0.001"}
{"target": "ZBTB21 (UniProt Q9ULJ3)", "log2 fold change": "inactive: 0.022"}
{"target": "XYLB (UniProt O75191)", "log2 fold change": "inactive: 0.093"}
{"target": "YTHDF1 (UniProt Q9BYJ9)", "log2 fold change": "inactive: 0.023"}
{"target": "YIF1B (UniProt Q5BJH7)", "log2 fold change": "inactive: 0.073"}
{"target": "ZFC3H1 (UniProt O60293)", "log2 fold change": "inactive: -0.014"}
{"target": "XXYLT1 (UniProt Q8NBI6)", "log2 fold change": "inactive: 0.025"}
{"compound": "CC1=CC=C(C=C1)SC2=C3C=C(SC3=CN=C2)C(=O)N", "assay": "log2 fold change, soluble protein after heating vs DMSO (PISA); higher = thermal stabilisation; K562 lysate, 10 uM; active = over 0.2 and 3.5 SD of the protein, either way, in both replicates (recomputed)", "how_it_was_run": "as §1"}
{"target": "XRCC5 (UniProt P13010)", "log2 fold change": "inactive: 0.013"}
{"target": "ZC3H7B (UniProt Q9UGR2)", "log2 fold change": "inactive: -0.104"}
{"target": "YLPM1 (UniProt P49750)", "log2 fold change": "inactive: -0.046"}
{"target": "ZFAND6 (UniProt Q6FIF0)", "log2 fold change": "inactive: -0.023"}
{"target": "ZGPAT (UniProt Q8N5A5)", "log2 fold change": "inactive: -0.048"}
{"target": "ZC3H13 (UniProt Q5T200)", "log2 fold change": "inactive: -0.022"}
{"target": "YES1 (UniProt P07947)", "log2 fold change": "inactive: -0.131"}
{"target": "YOD1 (UniProt Q5VVQ6)", "log2 fold change": "inactive: -0.006"}
{"target": "YDJC (UniProt A8MPS7)", "log2 fold change": "inactive: 0.021"}
{"target": "ZDHHC18 (UniProt Q9NUE0)", "log2 fold change": "inactive: -0.01"}
{"target": "ZBTB14 (UniProt O43829)", "log2 fold change": "inactive: -0.055"}
{"target": "XRN1 (UniProt Q8IZH2)", "log2 fold change": "inactive: 0.005"}
{"target": "ZEB2 (UniProt O60315)", "log2 fold change": "inactive: 0.05"}
{"target": "XPR1 (UniProt Q9UBH6)", "log2 fold change": "inactive: -0.007"}
{"target": "YJU2 (UniProt Q9BW85)", "log2 fold change": "inactive: -0.041"}
{"target": "YME1L1 (UniProt Q96TA2)", "log2 fold change": "inactive: -0.087"}
{"target": "YPEL5 (UniProt P62699)", "log2 fold change": "inactive: 0.078"}
{"target": "ZC3H18 (UniProt E7ERS3)", "log2 fold change": "inactive: 0.023"}
{"target": "ZFYVE16 (UniProt Q7Z3T8)", "log2 fold change": "inactive: -0.007"}
{"target": "ZFAND5 (UniProt O76080)", "log2 fold change": "inactive: 0.032"}
{"target": "ZER1 (UniProt Q7Z7L7)", "log2 fold change": "inactive: 0.041"}
{"target": "ZC2HC1A (UniProt Q96GY0)", "log2 fold change": "inactive: 0.006"}
{"target": "YTHDF2 (UniProt Q9Y5A9)", "log2 fold change": "inactive: 0.038"}
{"target": "YARS2 (UniProt Q9Y2Z4)", "log2 fold change": "inactive: 0.028"}
{"target": "XPO7 (UniProt Q9UIA9)", "log2 fold change": "inactive: -0.003"}
{"target": "ZBTB33 (UniProt Q86T24)", "log2 fold change": "inactive: 0.109"}
{"target": "XPO6 (UniProt Q96QU8)", "log2 fold change": "inactive: -0.006"}
{"target": "YRDC (UniProt Q86U90)", "log2 fold change": "inactive: 0.008"}
{"target": "YARS (UniProt P54577)", "log2 fold change": "inactive: 0.018"}
{"target": "ZFPL1 (UniProt O95159)", "log2 fold change": "inactive: -0.022"}
{"target": "ZC3HAV1 (UniProt Q7Z2W4)", "log2 fold change": "inactive: -0.017"}
{"target": "YBX1 (UniProt P67809)", "log2 fold change": "inactive: -0.028"}
{"target": "ZBTB21 (UniProt Q9ULJ3)", "log2 fold change": "inactive: -0.036"}
{"target": "XYLB (UniProt O75191)", "log2 fold change": "inactive: 0.009"}
{"target": "YTHDF1 (UniProt Q9BYJ9)", "log2 fold change": "inactive: -0.064"}
{"target": "YIF1B (UniProt Q5BJH7)", "log2 fold change": "inactive: 0.011"}
{"target": "ZFC3H1 (UniProt O60293)", "log2 fold change": "inactive: 0.018"}
{"target": "XXYLT1 (UniProt Q8NBI6)", "log2 fold change": "inactive: 0.016"}
